PubChem BioAssay AID743454 | Peter MacCallum Cancer Centre – 2014

Aim: 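Genes whose loss kills vorinostat-resistant colon cancer cells under vorinostat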 (primary screen)
Cells: human HCT116-VR colon cancer cells, selected for vorinostat resistance
Knock-down reagent: siRNA pool against human genes, 40 nM siRNA pool
Duration: vorinostat for 24 h, read-out about 72 h after transfection
Challenge: vorinostat at 2.5 µM final
Measurement: 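Cell viability by CellTiter-Fluor and caspase 3/7 activity by luminescence, each scaled to mock wells per plate, duplicates averaged, then robust z-scored over all plates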
Direction: viability robust z-score: higher = more viable cells than screen typical; caspase robust z-score: higher = more caspase 3/7 activity than screen typical
Call rule: 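Hits are knock-downs in viability class RV1/RV2 or caspase class CA1/CA2, excluding ones that killed cells in the no-drug cell-count arm; hits then retested with single siRNAs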
The whole screen tested about 18,000 reagents; shown is an unselected part. Over the whole deposit, 450 (2.5%) were called active. 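Single biological run; no consistent viability z cut-off exists, so the class columns, not z-scores, define the calls.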

For IL25, the values are viability hit class no change; caspase hit class no change; viability robust z-score 0.7; caspase robust z-score 2.17; inactive. With knock-down of SIRPA the results were viability hit class no change; caspase hit class no change; viability robust z-score -0.11; caspase robust z-score -0.52; inactive. For DCAF8, the values are viability hit class no change; caspase hit class no change; viability robust z-score 0.05; caspase robust z-score -0.31; inactive. With knock-down of LTBP4, the screen gave viability hit class no change; caspase hit class no change; viability robust z-score -0.08; caspase robust z-score 0.39; inactive. For ZC3H4, the entry reads viability hit class no change; caspase hit class no change; viability robust z-score 0.08; caspase robust z-score -0.96; inactive. After knock-down of GTF3C4, the record shows viability hit class no change; caspase hit class no change; viability robust z-score 0.76; caspase robust z-score 2.96; inactive.

Silencing of SH3PXD2B resulted in: viability hit class no change; caspase hit class no change; viability robust z-score 1.49; caspase robust z-score -0.16; inactive. With knock-down of ALDH3A2, the record shows viability hit class no change; caspase hit class no change; viability robust z-score 1.17; caspase robust z-score -0.34; inactive. Knock-down of SAFB2 gave: viability hit class no change; caspase hit class no change; viability robust z-score -0.58; caspase robust z-score 0.93; inactive. Against VSX2 the deposit lists viability hit class no change; caspase hit class no change; viability robust z-score -0.31; caspase robust z-score 1.49; inactive. EGFL6 scored viability hit class RV2 (reduced viability); caspase hit class no change; viability robust z-score -3.34; caspase robust z-score 2.01; active. Against TNP2, the entry reads viability hit class no change; caspase hit class no change; viability robust z-score -0.12; caspase robust z-score -0.02; inactive.

With knock-down of ZBTB46 the results were viability hit class no change; caspase hit class no change; viability robust z-score 0.36; caspase robust z-score 3.46; inactive. Depletion of CCNDBP1 gave: viability hit class no change; caspase hit class no change; viability robust z-score 1.46; caspase robust z-score -0.14; inactive. Against REG1A the deposit lists viability hit class no change; caspase hit class no change; viability robust z-score 0.54; caspase robust z-score -0.12; inactive. Against ANKRD11, the entry reads viability hit class no change; caspase hit class no change; viability robust z-score 0.94; caspase robust z-score 0.57; inactive. For GET4 the deposit lists viability hit class no change; caspase hit class no change; viability robust z-score -0.26; caspase robust z-score 3.44; inactive. For RUFY2, the values are viability hit class no change; caspase hit class no change; viability robust z-score 1.23; caspase robust z-score -0.67; inactive.

Against ZNF526 the deposit lists viability hit class no change; caspase hit class no change; viability robust z-score 0.54; caspase robust z-score 1.09; inactive. After knock-down of ATP5F1C, the screen gave viability hit class no change; caspase hit class no change; viability robust z-score 1.32; caspase robust z-score 1.28; inactive. Against MYO6, the values are viability hit class no change; caspase hit class no change; viability robust z-score 0.7; caspase robust z-score -0.6; inactive.

2 neighbouring records from above:
SH3PXD2B — viability hit class = no change; caspase hit class = no change; viability robust z-score = 1.49; caspase robust z-score = -0.16; outcome = inactive
ALDH3A2 — viability hit class = no change; caspase hit class = no change; viability robust z-score = 1.17; caspase robust z-score = -0.34; outcome = inactive
